Out of some 340,000 compounds screened, about 55 (0.02%) were called active. Inconclusive results, whose numbers are uncertain, are shown with a selection of clear calls.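 The calls were made as follows: active = phage lysis inhibition, versus mean bacterial control, above a set limit; inconclusive = no clear call, values can overlap the other calls; inactive = the rest.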
Assay: protection from phage-mediated lysis, alamar blue read-out – E. coli UTI89, K1F phage, bacterial capsule biogenesis inhibitors (AID 488966);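 also: capsule biogenesis inhibitors block K1F phage lysis so surviving cells raise fluorescence; higher fluorescence means more inhibition of phage lysis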
Conditions: 2 h; inhibition: at 100 µM, active compounds read high unless noted; series mostly up to 300 µM; inhibition of phage lysis: at the top concentration

Question: Which inhibition does the source give for NCCCC[C@H]1CNC(=S)N1CCCCC1CCCCC1 here?
Answer: inconclusive: 15.7%

Question: For CN(C)CCNc1c2c(nc3ccccc13)CCC2, which inhibition is on record?
Answer: inconclusive: 76%

Question: With Cc1ccc(NC(=O)N/C=C/c2ccco2)cc1 as the molecule, how does the inhibition read?
Answer: inactive: -0.09%

Question: For OCCN1CCN(CC/C=C2/c3ccccc3Sc3ccc(Cl)cc32)CC1, which inhibition is on record?
Answer: inconclusive: 20.6%

Question: Which inhibition does the source give for N=C1/C(=C\c2ccc(OC(=O)c3ccccc3Cl)cc2)C(=O)N=C2SC(N3CCOCC3)=NN12 here?
Answer: inconclusive: 105%

Question: For O=C(Nc1ccccc1)c1[nH]ncc1[N+](=O)[O-], which inhibition is on record?
Answer: inconclusive: 18.1%

Question: For CCCCCCCn1c(=O)c(C(=O)OC)c(N)c2ccccc21, which inhibition is on record?
Answer: inconclusive: 15.6%

Question: For Cc1cc(C)c2c3c(oc2n1)C(=O)N(c1cccc(Cl)c1)CC(=O)N3, which inhibition is on record?
Answer: inactive: 0.63%

Question: For Cc1cc(N2CCC(C)CC2)nc(-n2nc(C)cc2C)n1, which inhibition is on record?
Answer: inconclusive: 18.4%

Question: Which inhibition does the source give for CC(=O)NC1=NN(C(C)=O)C(C)(c2cccnc2)S1 (stereo not given) here?
Answer: inactive: 0.35%

Question: Which inhibition does the source give for COc1ccc(C(=O)OCC(=O)NCC2CCCCC2)cc1F here?
Answer: inactive: -0.21% [at 50 µM, active compounds read high]

Question: Which inhibition does the source give for CC(C)CC(c1nnnn1Cc1ccco1)N1CCN(C2CCCC2)CC1 (stereo not given) here?
Answer: inconclusive: 19%

Question: With Cc1cc(C)c(C(=O)CSC2=NC(N)=C(C#N)C3(CCCCC3)C2C(N)=O)cc1C (stereo not given) as the molecule, how does the inhibition read?
Answer: inconclusive: 15.4%

Question: For Cc1c(N(C(=O)Nc2ccccc2)C2=NCC(C)S2)c(=O)n(-c2ccccc2)n1C (stereo not given), which inhibition is on record?
Answer: inactive: 0.11%

Question: For Cc1nc(N2CCN(C(=O)c3ccco3)CC2)c2oc3ccccc3c2n1, which inhibition is on record?
Answer: inactive: 1.22%

Question: Which “inhibition of phage lysis” value does the source give for Cc1ccc(Sc2ncccc2C(=O)NCc2cc([N+](=O)[O-])ccc2O)cc1C here?
Answer: inactive: 7.85%

Question: For NC1=NC[C@H](Cc2ccc(O)cc2)N1CCc1cc(C(F)(F)F)cc(C(F)(F)F)c1, which inhibition is on record?
Answer: inconclusive: 16%

Question: Which inhibition does the source give for CCN(CC)c1ccc(NC(=O)c2ccc3c(c2)OCO3)cc1 here?
Answer: inactive: 2.01%

Question: For Cc1ccc(C(=O)N[C@H](C(=O)OCc2cc(=O)oc3cc(C)ccc23)C(C)C)cc1, which inhibition is on record?
Answer: inconclusive: 20.1%

Question: For CCNC(=O)NC(=O)C(C)OC(=O)CCCSc1nc2ccccc2s1 (stereo not given), which inhibition is on record?
Answer: inconclusive: 21.1%

Question: With COc1ccc(NC(=O)CN(C)C(=O)c2ccccc2OCC(=O)Nc2cccc(C(F)(F)F)c2)cc1 as the molecule, how does the inhibition read?
Answer: inactive: 1.88% [at 50 µM, active compounds read high]

Question: Which inhibition does the source give for CN(C)CCOC(C1CCCCC1)C1CCCCC1 here?
Answer: inconclusive: 22.8%

Question: Which inhibition does the source give for CNCCCOc1ccc(Cl)cc1C(C)(C)C here?
Answer: inconclusive: 20.2%

Question: With CCOC(=O)c1sc(NC(=O)Nc2ccc(F)cc2)nc1C as the molecule, how does the inhibition read?
Answer: inconclusive: 18.5%

Question: For CCC(C)n1c(SCC(=O)Nc2cc(C)on2)nc2ccccc2c1=O (stereo not given), which inhibition is on record?
Answer: inconclusive: 18.6%

Question: For O=C1c2ccc([N+](=O)[O-])cc2C(=O)N1c1ccc([N+](=O)[O-])cn1, which inhibition is on record?
Answer: inconclusive: 16.6%

Question: With NCCc1ccc(O)c(O)c1 as the molecule, how does the inhibition read?
Answer: inconclusive: 19%

Question: Which inhibition does the source give for COc1ccc(S(=O)(=O)NCC2CCCN(C(=O)c3ccco3)C2)cc1 (stereo not given) here?
Answer: inconclusive: 21.1%

Question: With CCCn1c(/C=C/c2ccco2)nc2ccccc21 as the molecule, how does the inhibition read?
Answer: inconclusive: 15.5%

Question: For Cc1nn(CC(=O)Nc2ccc(N3CCOCC3)cc2)c(C)c1Br, which inhibition is on record?
Answer: inactive: -0.525% [at 50 µM, active compounds read high]

Question: For Cc1ccc(NC(=O)CN(C)C(=O)COc2ncnc3ccc(Br)cc23)cc1, which inhibition is on record?
Answer: inactive: 0.5% [at 50 µM, active compounds read high]

Question: With Cc1cc(-c2nc(C)c(C(=O)NNC(=O)NC(C)C)s2)no1 as the molecule, how does the inhibition read?
Answer: inconclusive: 18.9%

Question: Which inhibition does the source give for Cc1c(CCOC(=O)CC23CC4CC(CC(C)(C4)C2)C3)sc[n+]1Cc1ccc([N+](=O)[O-])cc1 here?
Answer: inconclusive: 15.1%

Question: With Cc1cc(C(=O)COC(=O)C2=NNC(=O)CC2)c(C)n1-c1cccc(C(F)(F)F)c1 as the molecule, how does the inhibition read?
Answer: inconclusive: 15.5%

Question: For CC(C)n1c(-c2ccco2)csc1=Nc1cccnc1, which inhibition is on record?
Answer: inconclusive: 17.6%

Question: For COc1ccc2oc(-c3ccc(C)c(NC(=O)c4ccc(N5CCOCC5)c([N+](=O)[O-])c4)c3)nc2c1, which inhibition is on record?
Answer: inconclusive: 17.3%

Question: With CC(=O)c1ccccc1OCCCOc1cccc2cccnc12 as the molecule, how does the inhibition read?
Answer: inactive: 0.48%

Question: With CC[C@@H](C)[C@@H]1CN([C@@H](C)CN2CCC[C@H]2CN2C(N)=NC[C@@H]2Cc2ccccc2)C(=N)N1CCCC1CCCC1 as the molecule, how does the inhibition read?
Answer: inconclusive: 23.3%

Question: Which inhibition does the source give for Cc1csc2nc(CSc3nc4ccccc4o3)cn12 here?
Answer: inconclusive: 16.4%

Question: For COCCCNC(=O)COc1ccc(Br)cc1Cl, which inhibition is on record?
Answer: inconclusive: 15.8%

Question: Which inhibition does the source give for CCN(CC)CCCN1C(=O)C(O)=C(C(=O)c2ccco2)C1c1ccc(OC(C)C)cc1 (stereo not given) here?
Answer: inconclusive: 15.7%

Question: Which inhibition does the source give for COc1ccc(C(=O)Nc2ccc3c(c2)nc(CCNC(C)=O)n3C)cc1 here?
Answer: inactive: 5.13%

Question: Which inhibition does the source give for CCc1ccc(-c2cc(C(F)(F)F)n3nc(C(=O)Nc4cnn(Cc5ccc(C)cc5)c4)cc3n2)s1 here?
Answer: inconclusive: 19.3%

Question: Which inhibition does the source give for O=C(Nc1ccc(C(F)(F)F)cn1)Nc1cccs1 here?
Answer: inconclusive: 19.5%

Question: Which inhibition does the source give for CCOc1ccc(NC(=S)N2CCCC2)cc1 here?
Answer: inactive: 0.16%

Question: Which inhibition does the source give for CC(C)Cn1c(SCc2nnc(-c3cccs3)o2)nc(O)cc1=O here?
Answer: inconclusive: 18.4%

Question: For O=C(CSc1ccc(Cl)cc1)Nc1ccc(N2CCN(C(=O)c3ccc(Cl)cc3)CC2)cc1, which inhibition is on record?
Answer: inconclusive: 46.5%

Question: With CCOc1ccc(CC(=O)NCc2cn3c(C)csc3n2)cc1 as the molecule, how does the inhibition read?
Answer: inconclusive: 19.7%

Question: For Nc1nc2ccc(Br)cc2o1, which inhibition is on record?
Answer: inconclusive: 16.1%

Question: Which inhibition does the source give for CC(=O)Nc1ccc(Nc2ccc(S(=O)(=O)C(F)(F)F)cc2[N+](=O)[O-])cc1 here?
Answer: inactive: -2.27%

Question: Which inhibition does the source give for COc1cc(/C=C2\C(=N)N3N=C(N4CCOCC4)SC3=NC2=O)ccc1OC(=O)c1ccccc1 here?
Answer: inconclusive: 96.6%

Question: With O=C(COc1ccc2c(-c3ccccc3)cc(=O)oc2c1)NCCCn1ccnc1 as the molecule, how does the inhibition read?
Answer: inactive: -2.78%

Question: Which inhibition does the source give for CCCC(c1nnnn1CS(=O)(=O)c1ccc(C)cc1)N1CCN(c2ccc(F)cc2)CC1 (stereo not given) here?
Answer: inconclusive: 15.8%

Question: With COc1ccc(NC(=O)CSc2nnc(-c3ccc(C)cc3)n2N)cc1 as the molecule, how does the inhibition read?
Answer: inconclusive: 21.4%

Question: For Cc1ccc(NC(=S)c2nc3ccccc3[nH]2)c(C)c1, which inhibition is on record?
Answer: inconclusive: 19%

Question: Which inhibition does the source give for O=C1c2ccccc2C(=O)c2c(Nc3ccc(CCO)cc3)ccc(O)c21 here?
Answer: inactive: -1.03% [at 50 µM, active compounds read high]

Question: For CCCC1(C(=O)O)NC(c2ccccc2O)C2C(=O)N(Cc3ccccc3)C(=O)C21 (stereo not given), which inhibition is on record?
Answer: inconclusive: 20.8%

Question: With Cc1cccc(NC(=O)CSc2nnc(NC(=O)c3ccco3)s2)c1 as the molecule, how does the inhibition read?
Answer: inconclusive: 20.8%

Question: With Oc1ccc(C[C@H]2CNCCN2CCC23CC4CC(CC(C4)C2)C3)cc1 as the molecule, how does the inhibition read?
Answer: inconclusive: 15.3%

Question: Which inhibition does the source give for O=C(C[n+]1cccc(CNC(=O)c2ccc(OC(F)F)cc2)c1)Nc1cc(C(F)(F)F)ccc1Cl here?
Answer: inconclusive: 20.8%

Question: Which inhibition does the source give for CC(CCc1ccccc1)NC(=O)CN1CCOc2ccccc21 (stereo not given) here?
Answer: inactive: 0.85%

Question: Which inhibition does the source give for CCOC(=O)c1ccc2[nH]c3c(c2c1)CCCC3 here?
Answer: inactive: 0.13%

Question: Which inhibition does the source give for COc1ccc2cc1Oc1ccc(cc1)C[C@H]1c3c(cc(OC)c4c3Oc3c(ccc5c3[C@H](C2)N(C)CC5)O4)CCN1C here?
Answer: inconclusive: 20.8%

Question: With C/C(=N\NC(=O)c1ccccc1O)c1c(O)cc(C)oc1=O as the molecule, how does the inhibition read?
Answer: inconclusive: 16.3%

Question: Which inhibition does the source give for Cc1nc2ccccc2c(=O)n1CCCn1ccnc1 here?
Answer: inconclusive: 17.6%

Question: Which inhibition does the source give for Cc1ccccc1NC(=S)NNC(=O)c1csc2c1CCC(C)C2 (stereo not given) here?
Answer: inconclusive: 15.6%

Question: Which inhibition does the source give for CC(NC(=O)C1CCN(S(=O)(=O)c2ccc3c(c2)NC(=O)CO3)CC1)c1ccccc1 (stereo not given) here?
Answer: inconclusive: 15.7%

Question: For CNC[C@H]1Oc2c(NC(=O)C3CCCCC3)cccc2C(=O)N([C@H](C)CO)C[C@@H]1C, which inhibition is on record?
Answer: inconclusive: 16%

Question: For Cc1cc(C)nc(/N=C2\NC(=O)CC(C(=O)O)N2c2ccc(Oc3ccccc3)cc2)n1 (stereo not given), which inhibition is on record?
Answer: inconclusive: 20.4%

Question: With C(=C1c2ccccc2-c2ccccc21)c1ccncc1 as the molecule, how does the inhibition read?
Answer: inconclusive: 16.7%

Question: For Cc1cc(OC(=O)c2cccs2)ccc1C(C)C, which inhibition is on record?
Answer: inactive: -0.04%

Question: With CCc1ccccc1Nc1nc(-c2cccnc2)cs1 as the molecule, how does the inhibition read?
Answer: inconclusive: 20.3%

Question: With COc1ccc(NC(=S)NCC2CCN(c3ccc(OC)cc3)C2)cc1 (stereo not given) as the molecule, how does the inhibition read?
Answer: inconclusive: 15.3%

Question: For Cc1ccc(C)c(S(=O)(=O)N2CCCCC2CCNC(=O)C(=O)NCc2ccccc2)c1 (stereo not given), which inhibition is on record?
Answer: inactive: 0.87% [at 50 µM, active compounds read high]

Question: For CN(C)CCNC(=S)Nc1ccc(-c2nc3ccccc3[nH]2)cc1, which inhibition is on record?
Answer: inconclusive: 21.4%

Question: For CCN(CC)Cc1c(O)ccc2c(=O)c(-c3ccccc3OC)coc12, which inhibition is on record?
Answer: inconclusive: 18.5%

Question: With COc1ccc(C2=CSC3=C(C(=O)c4cccc(S(=O)(=O)N(C)C)c4)CCN23)cc1 as the molecule, how does the inhibition read?
Answer: inactive: 0.33%

Question: Which inhibition does the source give for CC(=O)Nc1ccc(C(=O)N/N=C/c2ccncc2)cc1 here?
Answer: inconclusive: 16.9%

Question: Which inhibition does the source give for CCOc1ccc(N2C(=O)CNC2=S)cc1 here?
Answer: inconclusive: 17.9%

Question: For Cc1ccc2c(c1)nnn2C1CCN(CC(=O)NCCc2ccccc2)CC1, which inhibition is on record?
Answer: inconclusive: 0.895% [at 50 µM, active compounds read high]

Question: For CC1(C)CCCC(C)(C)N1CC(O)COCCOc1ccc(Br)cc1 (stereo not given), which inhibition is on record?
Answer: inconclusive: 16.3%

Question: For O=C(Nc1ccc2c(c1)OCO2)c1ccncc1, which inhibition is on record?
Answer: inconclusive: 15.1%

Question: With O=C(Oc1cc(Cl)cc(Cl)c1)c1cnc2n(c1=O)CCS2 as the molecule, how does the inhibition read?
Answer: inconclusive: 17.7%

Question: For COc1ccccc1NS(=O)(=O)c1cc(NC(=S)Nc2cc(C)cc(C)c2)ccc1Cl, which inhibition is on record?
Answer: inconclusive: 18.5%

Question: For O=c1[nH]c2cc([N+](=O)[O-])ccc2c2ccc([N+](=O)[O-])cc12, which inhibition is on record?
Answer: inconclusive: 15.9%
